{"sequences": {"note": "Protein sequences, listed by entry. Tags and fused reporters are not part of them.", "UniProt P61961": "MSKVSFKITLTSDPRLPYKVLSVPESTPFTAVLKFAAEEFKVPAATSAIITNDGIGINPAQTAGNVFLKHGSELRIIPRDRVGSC"}, "source": "paper PMC3071830", "binders": {"B1": {"name": "UBA5; Ubiquitin-like modifier-activating enzyme 5, endogenous (enzyme, UniProt Q8VE47 1-403)", "chain": "MADSVERLRQRVEELEQELARERTRRSGGDGHCGRTRIQEMSDEVLDSNPYSRLMALKRMGIVSDYKKIRTYAVAIVGVGGVGSVTAEMLTRCGIGKLLLFDYDKVELANMNRLFFQPYQAGLSKVHAAEHTLRNINPDVLFEVHNYNITTVEHFEHFMNRISNGGLEEGQPVDLVLSCVDNFEARMAINTACNELGQTWMESGVSENAVSGHIQLMIPGESACFACAPPLVVASNIDEKTLKREGVCAASLPTTMGVVAGILVQNVLKFLLKFGTVSFYLGYNAMQDFFPTMFMKPNPQCDDKNCRKQQEEYKKRAAALPTQEAEPQEEAEVVHEDNEWGIELVSEVSEEELKNSSGPVPTLPEGITVAYTVPKKTEDSASEVTVEDSGESLEDLMARMKNM"}}, "biological_target": "STrEP-UFM1 (ubiquitin-fold modifier 1 with an N-terminal STrEP-tag) (mouse) (UniProt P61961)", "assay": "affinity purification with mass spectrometry; STrEP-UFM1 from transfected MIN6 cells (2 h 10 mg/l cycloheximide) held on STrEP-Tactin beads, lysate in S1 buffer; eluate on SDS-PAGE, Coomassie bands absent from the empty-vector control identified by MALDI TOF/TOF", "note": "These are yes or no findings as the source states them, for the method shown. Binding seen in cells or lysates may run through a third protein. These calls come from enrichment with a bait or labelling near it, and not all partners need be listed."}
{"binder": "B1", "values": [{"measurement": "binding", "value": "binds"}]}
